According to publication PMC9937922:
No constants are given. Whether binding was seen depends on the method and setting. Binding seen in cells or lysates may run through a third protein. Some results given as binding are weak or reduced against the parent protein; the word gives no strength.

By UniProt entry, the sequences of proteins in these tests, tags left out.
UniProt P12004: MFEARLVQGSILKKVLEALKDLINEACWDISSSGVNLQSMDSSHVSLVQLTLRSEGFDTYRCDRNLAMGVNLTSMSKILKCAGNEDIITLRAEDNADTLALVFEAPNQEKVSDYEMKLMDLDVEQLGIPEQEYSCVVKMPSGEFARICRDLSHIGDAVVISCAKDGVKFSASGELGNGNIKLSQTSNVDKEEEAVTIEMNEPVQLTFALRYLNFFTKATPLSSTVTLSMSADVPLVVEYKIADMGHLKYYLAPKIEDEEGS
UniProt P06733: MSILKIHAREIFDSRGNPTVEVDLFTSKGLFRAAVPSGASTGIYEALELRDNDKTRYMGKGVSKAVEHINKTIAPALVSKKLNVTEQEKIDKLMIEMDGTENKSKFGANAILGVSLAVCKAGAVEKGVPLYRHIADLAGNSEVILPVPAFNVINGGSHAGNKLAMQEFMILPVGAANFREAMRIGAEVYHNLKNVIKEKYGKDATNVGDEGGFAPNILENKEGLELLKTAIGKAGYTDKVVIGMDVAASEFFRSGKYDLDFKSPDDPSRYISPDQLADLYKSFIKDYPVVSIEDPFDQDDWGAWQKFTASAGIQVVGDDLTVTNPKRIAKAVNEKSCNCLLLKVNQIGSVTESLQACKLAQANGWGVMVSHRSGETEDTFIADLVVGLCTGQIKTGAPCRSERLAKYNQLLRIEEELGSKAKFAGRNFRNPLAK

Legend:
[1] = molecular target: proliferating cell nuclear antigen (PCNA) (human (endogenous in HAP1)) (UniProt P12004); assay: condition: only cells treated with ATX-101 (20 μM) 5 times with 1 h intervals; proximity ligation; in situ PLA on fixed WT HAP1 cells, untreated or treated with ATX-101 (20 μM) 5 times with 1 h interval, fixed 1–4 h after the last treatment
[2] = molecular target: proliferating cell nuclear antigen (PCNA) (human (endogenous in HAP1)) (UniProt P12004); assay: proximity ligation; in situ PLA on fixed WT HAP1 cells, untreated or treated with ATX-101 (20 μM) 5 times with 1 h interval, fixed 1–4 h after the last treatment
[3] = molecular target: proliferating cell nuclear antigen (PCNA) (human (endogenous in HAP1)) (UniProt P12004); assay: co-IP; Dynabeads Protein A cross-linked (BS3) with α-PCNA (PC10) or α-ENO1 (ab227978); 2 mg HAP1 cytosolic cell extract, 4 °C overnight; washes with 600 mM NaCl; western blot; both directions
[4] = molecular target: alpha-enolase (ENO1) (human (endogenous in HAP1)) (UniProt P06733); assay: as above
[5] = molecular target: proliferating cell nuclear antigen (PCNA) (human (endogenous in HAP1)) (UniProt P12004); assay: proximity ligation; synthetic ATX-101 (20 μM, 5 times with 1 h interval) added to WT HAP1 cells; loss of the ENO1 - PCNA PLA signal; only the binder purified

In the case of “alpha-enolase (ENO1) (from UniProt P06733 1-434) (enzyme)”, the binding [1] is reported as “no binding”, the binding [2] is reported as “binds” and the binding [3] is reported as “binds”.

“proliferating cell nuclear antigen (PCNA) (from UniProt P12004 1-261)” was tested, and the binding [4] was “binds”.

For MDRWLVKWKKKRKIRRRRRRRRRRR (N-terminal acetyl (Ac-)) [ATX-101], the binding [5] was “binds”.
